Measured values: US20260068882A1, “ARTHROPOD CONTROLLING COMPOSITION” (Firmenich SA, priority 2019, published 2026)
Some of these results come from one statement about several compounds together. At least one structure is not confirmed: it was looked up by name or label, or the drawing left a doubt.

Test system: Aedes aegypti
Assay: In vitro Warm Body assay, mosquitoes landing on treated warm body
Format: in vivo
Details: 0.0016% in ethanol (FIG. 8)
Procedure: (§1) The arthropod controlling effect according to the present invention is determined on mosquitoes using an adapted Warm Body assay as defined in Kröber T, Kessler S, Frei J, Bourquin M, Guerin P M. An in vitro assay for testing mosquito controlling compounds employing a warm body and carbon dioxide as a behavioral activator. J Am Mosq Control Assoc. 2010; 26:381-386.
(§2) The controlling effect according to the present invention is determined by testing the Warm Body assay against the yellow fever mosquito, Aedes aegypti Rockefeller strain. […] Observations of controlling efficacy were made on host-seeking females of uniform age, 5 to 10 days old selected as mentioned in the publication mentioned hereinabove. Tested hungry females had access to 10% sugar solution but were not blood-fed.
(§3) The published protocol has been adapted in not manually counting the landing mosquitoes but automatically using an automatic counting software, the switch from Anopheles gambiae to A. aegypti led to a decrease of mosquitoes' number placed in the tested cage due to the size difference (i.e. 30 mosquitoes instead of 50) and to an increase of lighting as A. aegypti is a diurnal mosquitoes (i.e. 150 lux instead of 4 lux).
as §2, with “A.” for “Aedes”
as §1, with “The” for “The arthropod”, “was assessed” for “is determined on mosquitoes”
as §3, with “Aedes” for “A.”
In this in-vitro assay the number of A. aegypti landing on a warm body treated with the tested stimuli was measured in order to assess the repellency effect. Three replicates were carried on the three different doses: 0.0016%, 0.04% and 1% in ethanol, using 25 A. aegypti 10-12 days old females per cage.
In this in-vitro assay, the number of Aedes aegypti landing on a warm body treated with the tested stimuli was measured in order to assess the repellency effect. Three replicates were carried on the three different doses: 0.0016%, 0.04% and 1% in ethanol.
In this in-vitro assay, the number of Aedes aegypti landing on a warm body treated with the tested stimuli was measured in order to assess the repellency effect. One replicate was carried at different doses ranging from 0.0016% up to 1% in ethanol.

Molecule	decrease of landing [%]
Cc1cc(C)c2c(c1)CC(C)(CO)C2 (racemic) [ingredient #1, (2,4,6-trimethyl-2,3-dihydro-1H-inden-2-yl)methanol]	> 25
Cc1ccc2c(c1)C1OC(=O)OCC1(C)C2 (stereo not shown) [4a,8-dimethyl-indano[1,2-d]-1,3-dioxan-2-one]	> 25

Same assay, conditions: 0.04% versus ethanol control (Table 6)

Molecule	reduction of the number of landing
OCC1Cc2ccccc2C1 [2,3-dihydro-1H-inden-2-ylmethanol]	above 90%
C[C@@H]1O[C@H](C)[C@@H]2Cc3ccccc3[C@@H]2O1 (racemic) [(2RS,4RS,4ASR,9BRS)-2,4-dimethyl-4,4a,5,9b-tetrahydroindeno[1,2-d][1,3]dioxine]	above 90%
CC1(C)OC[C@H]2Cc3ccccc3[C@H]2O1 (racemic) [(4aRS,9bSR)-2,2-dimethyl-4,4a,5,9b-tetrahydroindeno[1,2-d][1,3]dioxin]	above 90%
c1ccc2c(c1)CC1COCOC21 (stereo not shown) [ingredient #3, 4,4A,5,9B-tetrahydro-indeno[1,2-D]-1,3-dioxin]	above 90%
(2RS,4aRS,9bSR)-2-methyl-4,4a,5,9b-tetrahydroindeno[1,2-d][1,3]dioxin + (2RS,4aSR,9bRS)-2-methyl-4,4a,5,9b-tetrahydroindeno[1,2-d][1,3]dioxin	above 90%
